# Measured values as given in article PMC11114116 (Molecular Pharmacology, 2024).
# Target: T1, human FABP1 (hFABP1) (Homo sapiens, UniProt P07148)
# T1 sequence (P07148 1-127): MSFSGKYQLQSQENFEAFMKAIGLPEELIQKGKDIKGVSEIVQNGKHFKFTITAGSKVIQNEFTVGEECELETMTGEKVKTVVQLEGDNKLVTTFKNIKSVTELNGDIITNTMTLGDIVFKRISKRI
# Assay: DAUDA displacement assay for hFABP1 binding
structure (smiles),measurement,value
"CN1C(=O)CN=C(c2ccccc2)c2cc(Cl)ccc21 [Diazepam, diazepam]",EC50,> 50 µM
